Results of single-concentration screens

The chains behind the UniProt entries cited, without tags or fusion partners. Residues count along the entry.
UniProt Q8IDJ8, 1-583: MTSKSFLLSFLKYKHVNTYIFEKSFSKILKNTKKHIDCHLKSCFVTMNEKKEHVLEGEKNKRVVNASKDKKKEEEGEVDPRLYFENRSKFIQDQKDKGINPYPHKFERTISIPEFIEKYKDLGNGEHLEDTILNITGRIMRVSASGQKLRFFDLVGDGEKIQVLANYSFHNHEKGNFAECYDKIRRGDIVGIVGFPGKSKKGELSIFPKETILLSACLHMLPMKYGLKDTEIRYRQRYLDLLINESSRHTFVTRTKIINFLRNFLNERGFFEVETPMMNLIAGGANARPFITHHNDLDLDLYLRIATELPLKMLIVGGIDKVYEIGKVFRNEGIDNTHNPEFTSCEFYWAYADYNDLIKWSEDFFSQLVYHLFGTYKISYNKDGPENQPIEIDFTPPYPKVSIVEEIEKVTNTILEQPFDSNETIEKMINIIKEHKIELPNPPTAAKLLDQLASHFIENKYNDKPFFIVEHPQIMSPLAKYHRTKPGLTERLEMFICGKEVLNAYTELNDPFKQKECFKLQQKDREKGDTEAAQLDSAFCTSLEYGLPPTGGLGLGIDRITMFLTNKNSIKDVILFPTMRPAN
UniProt A4I591, 1-473: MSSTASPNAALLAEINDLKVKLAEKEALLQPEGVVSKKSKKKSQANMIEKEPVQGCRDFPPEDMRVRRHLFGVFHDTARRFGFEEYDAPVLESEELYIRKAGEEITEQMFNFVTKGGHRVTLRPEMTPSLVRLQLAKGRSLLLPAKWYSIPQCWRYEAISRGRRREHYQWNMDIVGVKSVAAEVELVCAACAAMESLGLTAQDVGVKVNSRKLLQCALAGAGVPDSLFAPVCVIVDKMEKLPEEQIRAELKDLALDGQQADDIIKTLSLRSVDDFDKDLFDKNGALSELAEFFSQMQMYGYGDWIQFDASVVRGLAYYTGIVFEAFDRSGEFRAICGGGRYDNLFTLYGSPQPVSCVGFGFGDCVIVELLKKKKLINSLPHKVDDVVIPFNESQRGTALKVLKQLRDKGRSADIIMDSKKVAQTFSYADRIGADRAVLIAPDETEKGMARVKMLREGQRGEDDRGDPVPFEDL
UniProt Q4DA54, 1-478: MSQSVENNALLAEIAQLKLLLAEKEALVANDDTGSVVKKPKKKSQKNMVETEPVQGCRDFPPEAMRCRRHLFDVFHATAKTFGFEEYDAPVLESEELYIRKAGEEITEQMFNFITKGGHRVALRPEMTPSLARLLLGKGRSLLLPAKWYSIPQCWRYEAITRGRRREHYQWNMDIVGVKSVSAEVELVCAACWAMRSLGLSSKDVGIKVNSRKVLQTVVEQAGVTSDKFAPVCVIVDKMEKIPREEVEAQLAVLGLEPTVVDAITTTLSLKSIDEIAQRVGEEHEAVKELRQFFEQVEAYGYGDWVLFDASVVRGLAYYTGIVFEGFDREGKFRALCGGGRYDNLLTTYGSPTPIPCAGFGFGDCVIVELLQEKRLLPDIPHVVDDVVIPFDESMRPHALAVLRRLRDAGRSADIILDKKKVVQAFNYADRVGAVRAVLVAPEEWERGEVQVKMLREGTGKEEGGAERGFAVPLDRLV
UniProt P9WPC5, whole entry: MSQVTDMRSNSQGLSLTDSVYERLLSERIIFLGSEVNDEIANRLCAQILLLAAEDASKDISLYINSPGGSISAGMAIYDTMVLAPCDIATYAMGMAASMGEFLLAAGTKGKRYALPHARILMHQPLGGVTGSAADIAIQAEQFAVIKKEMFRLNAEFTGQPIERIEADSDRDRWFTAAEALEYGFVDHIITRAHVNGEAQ
UniProt P9WPC3, whole entry partner: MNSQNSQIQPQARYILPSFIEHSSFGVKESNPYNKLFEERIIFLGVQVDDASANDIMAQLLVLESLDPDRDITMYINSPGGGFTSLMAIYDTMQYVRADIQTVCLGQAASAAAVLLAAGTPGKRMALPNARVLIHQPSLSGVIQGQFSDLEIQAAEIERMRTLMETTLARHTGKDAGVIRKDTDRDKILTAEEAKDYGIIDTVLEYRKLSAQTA

Measurements from “University of Dundee, Small-Polar-MMV Screening Library” (2021), ChEMBL document CHEMBL3988442.

PfKRS1: 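Lysine-tRNA ligase, Plasmodium falciparum 3D7 (UniProt Q8IDJ8). Enzyme assay of the cytosolic lysyl-tRNA synthetase in 384-well plates, read by luminescence. Tested at 30 µM. Direction is inferred from only a few compounds that gave an IC50; most scored high, so higher reads as stronger inhibition. Size under these conditions: about 69,000 compounds, about 49 of them at 50% or above in at least one test.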
LiHisRS: 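Enzyme assay of histidyl-tRNA synthetase; the read-out is not stated. Target: Histidine-tRNA ligase, Leishmania infantum (UniProt A4I591). Compounds at 30 µM. Direction is inferred from retests: higher values go with stronger inhibition. The assay is labelled LdHisRS but filed under L. infantum. Size under these conditions: about 69,000 compounds, about 410 of them at 50% or above in at least one test.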
TcHisRS: 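Enzyme assay of histidyl-tRNA synthetase; the read-out is not stated. Target: Histidine-tRNA ligase, Trypanosoma cruzi CL Brener (UniProt Q4DA54). Concentration: 30 µM. The record gives no direction; compounds that gave an IC50 in retests scored well above the rest, so higher reads as stronger inhibition. Of about 69,000 compounds tested this way, about 31 (0.045%) reached 50% or more in at least one test.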
Leishmania in macrophages: 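Cell assay of Leishmania donovani living inside macrophages; the read-out is not stated. Compounds at 30 µM. The record gives no direction; compounds that gave an IC50 in retests scored well above the rest, so higher reads as stronger inhibition. Size under these conditions: about 69,000 compounds, about 1,000 of them at 50% or above in at least one test.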
ClpP1P2: 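ClpP1P2, Mycobacterium tuberculosis (UniProt P9WPC5 and UniProt P9WPC3). Protease assay of ClpP1P2, read by the AMC dye that it sets free. Compounds at 50 µM. Higher reads as stronger inhibition, judged from the few compounds that gave an IC50. Most other retested compounds had strongly negative values. About 69,000 compounds were tested under these conditions; 0.015% (about 10) showed 50% or more at least once.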

Values are the deposited “Percent Effect”, in %.
The record does not define 0% and 100%; most values in the screen are far below 50% and negative numbers occur (in some assays of this library far below -100).
This is an unselected part of the compounds tested.
Two or more numbers in one place are separate tests of the same structure; such repeats can differ widely.
A dash means the value is not listed here; it may have been measured.

| Compound | PfKRS1 | LiHisRS | TcHisRS | Leishmania in macrophages | ClpP1P2 |
|---|---|---|---|---|---|
| `CCN1CC2(CC1=O)CN(Cc1ccc(C)o1)CCN(C(=O)C(C)C)C2.O=C(O)C(F)(F)F` (stereo not shown) | - | - | - | -2.684 | - |
| `CNC(=O)CN1CCC2(CCCN(CC3CCOC3)C2)CC1.O=C(O)C(F)(F)F.O=C(O)C(F)(F)F` (stereo not shown) | - | - | - | 33.01 | - |
| `O=C(C1CCCC1)N1CCC(C(O)c2ccc(F)cc2)CC1` (stereo not shown) | 2.476 | 6.806 | 2.674 | 19.87 | -2.576 |
| `CSc1ccccc1C(=O)N1C[C@H]2CC[C@@H]1CN(C(=O)C1CCC1)C2` | 1.971 | 14.52 | 1.754 | - | -9.914 |
| `CCc1nccn1-c1cncc(C2CCCN2Cc2ccccc2)n1` (stereo not shown) | 4.589 | 15.94 | 16.48 | 13.62 & 3.044 | -17.99 |
| `O=C(O)C(F)(F)F.O=C(O)C(F)(F)F.O=C(O)c1cc2c(nc1-c1ccsc1)CCN(C1CCOC1)CC2` (stereo not shown) | - | - | - | 9.456 | - |
| `CN1CCOC(C(=O)N2CCC3(CCCCC3)C2)C1` (stereo not shown) | 0.6896 | 0.5236 | 9.091 | 3.34 | 1.967 |
| `NC(=O)NC1CCN(Cc2ccc(Br)c(F)c2)CC1` | -0.8315 | 3.922 | -1.235 | 36.23 | 8.919 |
| `O=C(NCCC(=O)N1CCCC1)c1nn(-c2ccccc2F)cc1O` | -3.687 | 24.62 | 0.3831 | -0.1897 | 2.076 |
| `CC(C)C(C)NC(=O)Nc1ccc(CC(N)=O)cc1` (stereo not shown) | -0.9456 | 4.11 | 5 | 13.17 | 8.132 |
| `Nc1ncncc1-c1noc([C@@H]2CCCN2CCCc2ccccc2)n1` | 10.19 | 36.49 | 0 | 5.712 | -6.828 |
| `O=C(NC1CC1)c1cc2c(nc1O)CC(c1cccs1)CC2=O` (stereo not shown) | 6.226 | 13.33 | -1.136 | 4.663 | 4.48 |
| `O=C(NCCNc1cc(N2CCCC2)ncn1)c1cnccn1` | 3.151 | 0 | 4.598 | 23.61 | 4.48 |
| `N#Cc1ccnc(N2CCC(NCCN3CCCC3)CC2)c1` | 3.833 | 26.37 | 10.24 | 25.67 | -9.185 |
| `Cl.c1ccc(CN2CCNCC(Cc3cnccn3)C2)cc1` (stereo not shown) | - | - | - | 23.28 | - |
| `Cc1cccnc1CC(C)Nc1ncc(C)c(N(C)C)n1` (stereo not shown) | 0.9826 | 10 | 1.064 | -0.2145 | -8.666 |
| `Cc1nnc2n1CCN(C(C(=O)N1CCCCC1)c1ccccc1)C2` (stereo not shown) | 0.8634 | 13.89 | 7.918 | 17.48 | -17.84 |
| `O=C(CN1CC(c2ccccc2)CC1=O)N1CCN(c2nccs2)CC1` (stereo not shown) | 0.7071 | 13.33 | 4.348 | -4.121 | -2.044 |
| `[H][C@]12CCC[C@@]1(COCC1CCOCC1)CN(C(=O)c1cccs1)C2` | - | - | - | 18.1 | - |
| `CC(C)(C)c1nnc(CN(Cc2cccs2)CC2CCCO2)o1` (stereo not shown) | -1.008 | 9.91 | 3.333 | 3.073 | -13.94 |
| `CSCCC(=O)N1CCC(Oc2cc(C)ccc2F)(C(=O)O)CC1` | 1.208 | 6.731 | 1.626 | 14.91 | -1.728 |
| `O=C(c1c[nH]cn1)N1CCC(F)(F)C2(CCN(c3cccc(F)c3)C2)C1` (stereo not shown) | -0.3151 | 32.74 | 25.81 | - | 0.7797 |
| `CCC(=O)NCC(=O)Nc1c(C)cnn1Cc1cc(F)ccc1F` | 1.102 | 14.52 | 8.046 | 24.53 | -6.417 |
| `Cc1cnn(CCNCC(O)COc2c(Cl)cccc2Cl)c1` (stereo not shown) | 1.026 | 11.86 | 5.143 | 15.47 | -24.41 |
| `O=C(NCCc1cnccn1)c1cccc(S(=O)(=O)NC2CCOC2)c1` (stereo not shown) | 2.743 | 18.58 | 5.6 | 28.4 | 5.83 |
| `COCc1nc(C2CCN(Cc3ncc[nH]3)CC2)no1` | 1.068 | 7.368 | 5.97 | -0.1501 & 19.75 | -3.096 |
| `O=C(Cc1cccc(O)c1)N1CCCC(O)(CN2CCOCC2)CC1` (stereo not shown) | -1.312 | 8.511 | 10.9 | 10.3 | 17.75 |
| `CN1CCN(C[C@@H]2OC[C@H]3CN(Cc4ccncc4)CC[C@H]32)CC1` | 0.1621 | -1.389 | 2.804 | - | -17.18 |
| `[H][C@@]12CCN(Cc3cnn(C)c3)C[C@@]1([H])O[C@@H](c1nc(C)cs1)C2` | - | - | - | -5.36 | - |
| `Cc1nc(Cn2c3c(ccc2=O)CC(NC(C)C)CC3)cs1` (stereo not shown) | 4.809 | 11.71 | 3.315 | - | -0.507 |
| `N#Cc1cc(S(N)(=O)=O)ccc1NC1CCc2cc(Cl)ccc21` (stereo not shown) | 8.702 | 25.44 | 8.621 | -6.526 | 1.307 |
| `CN(C)C(=O)N1CCC2(CCCN(c3ncccn3)C2)C1` (stereo not shown) | 3.866 | 13.89 | 9.346 | - | -10.35 |
| `N#Cc1cc(F)ccc1Cn1cnc(C2CCC2)cc1=O` | 1.078 | 17.07 | 7.212 | -1.261 | -12.62 |
| `Cc1nnc(SCCC(=O)N(C)Cc2c(F)cccc2Cl)[nH]1` | 1.788 | 17.33 | 1.734 | 30.81 | -6.938 |
| `O=C(CSc1ccccc1)N1C[C@H]2CC[C@@H]1CN(Cc1ccncc1)C2` | 4.541 | 12.9 | 13.09 | - | -8.473 |
| `CC1(C)CN(S(=O)(=O)N2CCCC2)CC1c1ccccc1` (stereo not shown) | -3.014 | -0.8333 | -3.865 | 27.33 | -23.24 |
| `Nc1c(N2CCCC2)ncnc1N1CCOCC1` | -0.7012 | -7.921 | -1.136 | -3.034 | -3.319 |
| `CCn1c(C2CCCN(Cc3cc(C)cc(C)c3)C2)nn(C)c1=O` (stereo not shown) | 0.723 | 8.197 | 2.326 | 2.364 | 16.29 |
| `CCN(Cc1cccc2c1OCO2)C(=O)NCc1ccccn1` | -1.313 | 1.709 | 0.2849 | -27.84 | -20.25 |
| `Cc1ccc(-n2cc(C(=O)NCC(C)Cn3cccn3)nn2)cc1` (stereo not shown) | 3.904 | 13.16 | 2.924 | 10.22 | -11.06 |
| `CCc1cc(N(C)CCc2noc(C)n2)nc(N2CCOCC2)n1` | 3.289 | 13.33 | 10.39 | 7.434 | 4.454 |
| `NC(=O)NC(=O)CCn1ccc(-c2ccsc2)n1` | 3.535 | 7.563 | 11.76 | 2.06 | -8.531 |
| `O=C(NC1CCCC1)N1CCCC(c2nccn2Cc2ccncc2)C1` (stereo not shown) | 3.553 | 22.12 | 0.813 | -3.027 | -5.106 |
| `CCC(CNC(=O)CCn1cncn1)N1CCc2ccccc2C1` (stereo not shown) | -2.948 | -113.3 | 5.82 | -11.43 | 2.512 |
| `O=C(c1ccc(Sc2ccccn2)cc1)N1CCCSCC1` | 0.4593 | 9.89 | 8.247 | -5.002 | -1.713 |
| `COCCCNC(=O)Nc1ccc(F)c(C(N)=O)c1` | 0.7905 | 13.68 | 4.274 | 10.58 | -11.18 |
| `Cc1nc2ccccc2n1Cc1cc(C(=O)N(C)C2CCOC2)n[nH]1` (stereo not shown) | 0.09152 | 5.495 | 1.98 | 20.96 | -9.118 |
| `Cc1ncc(C(=O)NCCNC(=O)Cc2cccc(F)c2)s1` | 0.9227 | 18.18 | 3.509 | 13.72 | -15.02 |

4 of the entries, repeated:

Compound	PfKRS1	LiHisRS	TcHisRS	Leishmania in macrophages	ClpP1P2
[H][C@]12CCC[C@@]1(COCC1CCOCC1)CN(C(=O)c1cccs1)C2	-	-	-	18.1	-
N#Cc1ccnc(N2CCC(NCCN3CCCC3)CC2)c1	3.833	26.37	10.24	25.67	-9.185
N#Cc1cc(S(N)(=O)=O)ccc1NC1CCc2cc(Cl)ccc21 (stereo not shown)	8.702	25.44	8.621	-6.526	1.307
CCn1c(C2CCCN(Cc3cc(C)cc(C)c3)C2)nn(C)c1=O (stereo not shown)	0.723	8.197	2.326	2.364	16.29